Measured values from PubChem BioAssay AID493014 (National Center for Advancing Translational Sciences (NCATS), 2011).
This is one part of the list. Shown are side measurements of this screen, not its main read-out; they come without a call. Compounds called inactive in the main read-out are mostly missing here. Potencies come from curve fits of mixed quality, noted in brackets.

Assay: qHTS Assay to Find Inhibitors of Chronic Active B-Cell Receptor Signaling
Conditions: ABC-DLBCL IkBa-CBG/CBR reporter, luminescence ratio (green luciferase fused to IkBa over red control in TMD8 lymphoma cells), 4 h
How it was run: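 Compounds up to 46 uM were incubated four hours with TMD8 cells whose green CBG68 luciferase is fused to IkappaBalpha; red CBR luminescence normalised the signal, and concentration-effect curves were fitted to fusion, red and ratio data.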

[1] = measured here: CBR red luminescence, cell number
[2] = measured here: IkBa-CBG green luminescence

SMILES | AC50 [1] | AC50 [2]
CCc1nc2nc(C)c(NS(=O)(=O)c3cccs3)c(=O)n2[nH]1 | 6.31 µM [falling, single point] | –
COc1cccc2cc(C(C)N(CCCN3CCOCC3)C(=S)Nc3c(C)cccc3C)oc12 (stereo not drawn) | 17.8 µM [rising, single point] | –
S=c1[nH]cc(-c2ccccc2)[nH]1 | 8.91 µM [rising, partial curve, poor fit] | –
COc1ccc(NC(=O)c2cnc3n(c2=O)CCS3)cc1OC | 1.46 µM [falling, partial curve, poor fit] | –
O=C(N/N=C/c1ccco1)c1cc2ccccc2o1 | 10 µM [falling, partial curve] | –
O=C(NCCCCNC(=O)c1ccccc1F)c1ccccc1F | 35.5 µM [falling, single point] | –
COC(=O)C1=C(N)Oc2cc(N(C)C)ccc2C1c1ccccc1OC (stereo not drawn) | 15.8 µM [rising, single point] | –
O=C(O)c1ccccc1NC1CCCCC1NS(=O)(=O)c1ccccc1 (stereo not drawn) | 1.12 µM [falling, full curve, poor fit] | –
Cc1cc(=O)n2cccc(O)c2n1 | – | 22.4 µM [falling, single point]
C/C(=N\NC(=O)c1cccnc1)c1c(O)cc(C)oc1=O | 18.4 µM [falling, partial curve] | –
O=S(=O)(c1ccc(F)c(Cl)c1)N1CCCC1 | 14.6 µM [rising, partial curve, poor fit] | –
Oc1[nH]c2ccccc2c1N=NC(=S)NCCc1ccccc1 | 29.1 µM [rising, single point] | 29.1 µM [falling, single point]
O=C(O)CC1(CC(=O)Nc2ccc3sccc3c2)CCCCC1 | 11.2 µM [falling, partial curve] | –
COc1ccc(C2(C(=O)Nc3ccc(C(=O)O)cc3)CCOCC2)cc1 | 0.92 µM [rising, partial curve, poor fit] | –
CCOC(=O)c1cnc(SCC(=O)c2ccc(Cl)cc2)nc1N | 5.17 µM [falling, full curve] | –
COc1cc2c(cc1OC)C(c1ccccc1[N+](=O)[O-])N(C(C)=O)CC2 (stereo not drawn) | 15.8 µM [rising, partial curve, poor fit] | –
Cc1ccc(C)c2[nH]c(=O)c(CN(Cc3nnnn3C3CCCCC3)CC3CCCO3)cc12 (stereo not drawn) | 35.5 µM [falling, single point] | –
Cc1ccc(O)c(C(=O)c2cc(C#N)c(=O)n(C(C)c3ccccc3)c2)c1 (stereo not drawn) | 35.5 µM [falling, single point] | –
CC(NC(=O)c1ccc([N+](=O)[O-])o1)C1CC2CCC1C2 (stereo not drawn) | 10.3 µM [falling, single point] | –
Cc1cc2oc(=O)cc(CN3CCCc4ccccc43)c2cc1C | 22.4 µM [rising, single point] | 15.8 µM [falling, partial curve, poor fit]
O=C(N/N=C/c1cn(-c2ccccc2)nc1-c1cccnc1)c1ccccc1 | 22.4 µM [falling, single point] | –
NNC(=O)c1nnn(-c2nonc2N)c1-c1cccs1 | 0.562 µM [falling, full curve, poor fit] | –

Complete entries, quoted from the list:
`O=S(=O)(c1ccc(F)c(Cl)c1)N1CCCC1` as listed: AC50 [1]: 14.6 µM [rising, partial curve, poor fit]
`COc1ccc(NC(=O)c2cnc3n(c2=O)CCS3)cc1OC` as listed: AC50 [1]: 1.46 µM [falling, partial curve, poor fit]
`COC(=O)C1=C(N)Oc2cc(N(C)C)ccc2C1c1ccccc1OC` (stereo not drawn) as listed: AC50 [1]: 15.8 µM [rising, single point]

(listing goes on)

SMILES | AC50 [1] | AC50 [2]
CN(C)c1ccc(/C=C(/NC(=O)c2ccccc2)C(=O)N/N=C/c2ccc([N+](=O)[O-])c(O)c2)cc1 | 14.6 µM [falling, partial curve] | –
Cc1nn(-c2ccc(Cl)cc2)c2[nH]c(=O)c(CNCc3ccc4c(c3)OCO4)cc12 | 35.5 µM [falling, partial curve, poor fit] | –
CCCSc1ccc2nc(NC(=O)OC)[nH]c2c1 | 2.91 µM [rising, full curve] | –
CCC(C)NC(=O)CSc1c2c(nc3ccccc13)CCCC2 (stereo not drawn) | 14.1 µM [falling, partial curve] | –
O=C(COC(=O)c1cccnc1Nc1ccccc1F)NCCN1C(=O)CSC1=O | 16.4 µM [falling, single point] | –
COC(=O)c1scc(C)c1NC(=O)/C=C/C(=O)O | 20 µM [falling, single point] | –
CCc1ccc(C(=O)NN=C2CCCCCC2)s1 | 14.1 µM [falling, partial curve, poor fit] | –
Cc1ccc(O)c(C(=O)/C=C/c2ccc3c(c2)OCCO3)c1 | 35.5 µM [falling, single point] | –
CCC(c1nnnn1C1CCCCC1)N(Cc1ccco1)Cc1cc2ccc(OC)cc2[nH]c1=O (stereo not drawn) | 35.5 µM [rising, partial curve, poor fit] | –
COc1cc(CC(=O)NCc2ccccn2)cc(OC)c1OC | 32.6 µM [rising, single point] | –
COCCNc1nnc(SCC(=O)c2c[nH]c3ccccc23)s1 | 23.1 µM [falling, single point] | –
O=C(Nc1ccc(OCC(F)(F)C(F)F)cc1)c1ccncc1 | 2.24 µM [rising, full curve] | –
CC(C)C(=O)Nc1cccc(NC(=S)NC(=O)c2ccc([N+](=O)[O-])cc2)c1 | 6.31 µM [rising, partial curve, poor fit] | –
COc1ccc(CCNC(=O)c2cccc(NS(=O)(=O)c3ccccc3F)c2)cc1OC | 35.5 µM [rising, single point] | –
CC(C)CNC(=S)Nc1ccc(F)cc1 | 16.4 µM [rising, partial curve, poor fit] | –
CCC(CC)C(=O)Nc1cccc(/C(C)=N/NC(=O)c2ccccc2Cl)c1 | 5.8 µM [falling, partial curve] | –
CCCCn1c(=O)n(CC(=O)Nc2ccc(OC)c(Cl)c2)c(=O)c2c1nc(CO)n2CCC | 0.517 µM [rising, full curve, poor fit] | –
CSc1ncccc1C(=O)Nc1ccc2nc(C)sc2c1 | 35.5 µM [falling, single point] | –
Fc1cccc(Oc2nc3ccccc3n3cccc23)c1 | 29.1 µM [rising, single point] | –
CSc1ccc(NC(=O)Nc2ccccc2C(N)=O)cc1 | 11.2 µM [falling, partial curve] | –
CC1(C)CC(=O)C2=C(C1)OC(N)=C(C#N)C2C#Cc1ccccc1 (stereo not drawn) | 3.16 µM [falling, full curve, poor fit] | –
Cc1nc(NC(=O)COC(=O)/C=C/c2ccco2)c(Cl)cc1Cl | 29.1 µM [rising, partial curve, poor fit] | –

SMILES | AC50 [1] | AC50 [2]
COc1ccc(Nc2nc(C)cc(C)c2C#N)cc1 | 2.06 µM [falling, partial curve, poor fit] | –
CCC(C)(C)NC(=O)C(c1ccc(OC)cc1)N(Cc1ccco1)C(=O)CCC(=O)Nc1cc(C)on1 (stereo not drawn) | 2.59 µM [falling, partial curve, poor fit] | –
CC(C)CC[n+]1ccccc1/C=C/c1ccc(N(C)C)cc1 | 20 µM [falling, partial curve, poor fit] | –
COC(=O)c1ccc(/C=N/Nc2nc(C)c(C)s2)cc1 | 0.251 µM [falling, full curve, poor fit] | –
Cc1cccc([C@@H]2[C@@H]3C(=O)N(Cc4ccccc4)C(=O)[C@@H]3[C@]3(Cc4ccccc4)C(=O)N(c4cccc(F)c4)C(=O)N23)c1 | 5.8 µM [falling, partial curve] | –
COc1ccccc1-n1cnnc1SCC(=O)Nc1nc(C)c(Cl)cc1Cl | 13 µM [falling, partial curve] | –
O=C(CSc1nncc2ccccc12)Nc1ccc(C(=O)O)cc1 | 11.2 µM [falling, partial curve] | –
O=C(Nc1ccc(F)c(Cl)c1)c1ccccc1 | 16.4 µM [falling, single point] | –
O=C(Nc1ccc(C(F)(F)F)cc1)c1cccnc1N1CCOCC1 | 29.1 µM [falling, single point] | –
CN1CCN(C2=Cc3cc(Cl)ccc3Sc3cc(F)ccc32)CC1 | 18.4 µM [falling, single point] | –
Cc1ccc(F)cc1NC(=O)CCC(=O)c1cccs1 | 29.1 µM [falling, single point] | –
CCc1cccc2c(C(=O)CCl)c[nH]c12 | 18.4 µM [falling, partial curve, poor fit] | –
C#CC(=O)N(c1cccc(OC)c1)C(C(=O)NC1CCCC1)c1cccs1 (stereo not drawn) | 7.94 µM [falling, partial curve] | –
Cc1nc2ccc(NC(=O)N3CCSCC3)cc2s1 | 14.6 µM [falling, partial curve, poor fit] | –
CC(C)c1ccc(N(C(=O)c2ccc3c(c2)OCO3)C2C=CS(=O)(=O)C2)cc1 (stereo not drawn) | 20 µM [falling, partial curve, poor fit] | –
CCCCN(CC)CCNC(=O)CN1C(=O)COc2ccc(S(=O)(=O)N3CCCC3)cc21 | 32.6 µM [falling, partial curve, poor fit] | –
Cc1ccc(OCc2cc(C(=O)NCC3COCCO3)no2)cc1C (stereo not drawn) | 20 µM [falling, single point] | –
Cc1ccc(S(=O)(=O)Nc2ccc(NC(=O)c3cccnc3)cc2)cc1 | 6.31 µM [rising, single point] | –
CCOC(=O)c1cnc2c(-c3ccc(F)cc3)cnn2c1C(F)(F)F | 8.91 µM [falling, partial curve] | –
CCC(C)[C@H](NC(=O)C1CCN(C(=O)[C@H](Cc2ccccc2)NC(=O)OC(C)(C)C)CC1)C(=O)O (stereo partly drawn) | 35.5 µM [falling, partial curve, poor fit] | –
N#C/C(=C\c1ccc(O)c(Br)c1)C(=O)NCc1ccccc1 | 22.4 µM [falling, single point] | 35.5 µM [rising, single point]
